Laboratory results: patent publication US9108920B2, “Diazeniumdiolate heterocyclic derivatives” (Merck Sharp & Dohme Corp., priority 2010, dated 2015)
Some results were stated once for a whole list of compounds, not compound by compound.

What follows are molecules tested on Male beagle dogs (assay: canine telemetry protocol, blood pressure reduction efficacy). Details: drop over a 1-6 hour period of time; 3 mg/kg oral gavage.
Format: in vivo
Experimental: Compounds of the invention were evaluated for blood pressure reduction efficacy using the following canine telemetry protocol described below.
Male beagle dogs (approximately 1-3 years old) with a body weight of between 10 and 16 kg were surgically implanted with DSI radiotelemetry devices (model: TL11M2-D70-PCT). Briefly, under an inhalant anesthesia, isoflurane/oxygen mixture (1-3.5%/to effect), the body of the telemetry device was positioned and secured intra-abdominally. Subsequently, the arterial catheter of the telemetry device was passed subcutaneously to the inguinal area and introduced into the femoral artery and advanced to the level of the descending aorta. The catheter was secured with 2-0 silk ligatures. The muscle and underlying fascia was closed over the catheter using absorbable suture and the skin was closed using non-absorbable suture. The animals were allowed a minimum recovery period of 2 weeks between surgery and the evaluation of test compounds.
Compound evaluation consisted of a 3 day paradigm at a 3 mg/kg dose. On the first day, no compounds were administered during a 24 hour period of baseline data collection. Blood pressure and heart rate data were collected continuously for one minute periods at 10 minute intervals. On the days of compound administration half the animals received test article with the other half receiving the vehicle used for compound formulation. All test materials were administered by oral gavage in a volume of 1 mL/kg. Data are expressed either as raw values (mm Hg or beats per minute) or as the change from baseline (average value for about 12 hours in low activity period prior to dosing).

Structure (SMILES)	dropped blood pressure
CN(/[N+]([O-])=N/O[C@@H]1CCN(c2ccc(C(F)(F)F)cc2)C1=O)C(C)(C)C [Example 62]	at least 5 mm Hg
CN(C(=O)N1CC[C@@H](O/N=[N+](\[O-])N(C)C(C)(C)C)C1)C(C)(C)C [Example 116, O^2-{(3R)-1-[tert-butyl(methyl)carbamoyl]pyrrolidin-3-yl}1-(N-tert-butyl-N-methylamino)diazen-1-ium-1,2-diolate]	at least 5 mm Hg
CCN(/[N+]([O-])=N/O[C@@H]1CCN(C(=O)OC(C)(C)C)C1)C(C)(C)C [Example 3, O^2-[(3R)-1-(tert-butoxycarbonyl)pyrrolidi-3-yl]-(N-tert-butyl-N-ethylamino)diazen-1-ium-2-diolate]	at least 5 mm Hg
CC(C)(C)NC(=O)N1CC[C@@H](O/N=[N+](\[O-])N2CCCCC2)C1 [Example 126, O^2-[(3R)-1-(tert-butylcarbamoyl)pyrrolidin-3-yl]1-(piperidin-1-yl)diazen-1-ium-1,2-diolate]	at least 5 mm Hg
CCN(/[N+]([O-])=N/OC1CCN(C(=O)C(F)F)CC1)C(C)(C)C [Example 55, O^2-[1-(difluoroacetyl)piperidin-4-yl]1-(N-tert-butyl-N-ethylamino)diaz-1-ium-1,2-diolate]	at least 5 mm Hg
CN(/[N+]([O-])=N/O[C@@H]1CCN(CC(F)(F)F)C1=O)C(C)(C)C [Example 88, O^2-[(3R)-2-oxo-1-(2,2,2-trifluoroethyl)pyrrolidin-3-yl]1-(N-tert-butyl-N-methylamino)diazen-1-ium-1,2-diolate]	at least 5 mm Hg
CN(/[N+]([O-])=N/O[C@@H]1CCN(c2nccs2)C1)C(C)(C)C [Example 42, O^2-[(3R)-1-(1,3-thiazol-2-yl)pyrrolidin-3-yl]1-(N-tert-butyl-N-methylamino)diazen-1-ium-1,2-diolate]	at least 5 mm Hg
CCN(/[N+]([O-])=N/OC1CCN(C(C)c2ccccc2)CC1)C(C)(C)C (racemic) [Example 36, (±)-O^2-[1-(1-phenylethyl)piperidin-4-yl]1-(N-tert-butyl-N-ethylamino)diazen-1-ium-1,2-diolate]	at least 5 mm Hg
CN(/[N+]([O-])=N/OC1CCN(C(=O)OC(C)(C)C)CC1)C(C)(C)C [Example 5, O^2-[1-(tert-butoxycarbonyl)piperidin-4-yl]1-(N-tert-butyl-N-methylamino)diazen-1-ium-1,2-diolate]	at least 5 mm Hg
CN(/[N+]([O-])=N/O[C@@H]1CCN(C(C)(C)c2ccccc2)C1)C(C)(C)C [Example 30]	at least 5 mm Hg
CN(/[N+]([O-])=N/OC1CCCN(C(=O)OC(C)(C)C)C1)C(C)(C)C (racemic) [Example 12, (±)-[1-(tert-butoxycarbonyl)piperidin-3-yl]1-(N-tert-butyl-N-methylamino)diazen-1-ium-1,2-diolate]	at least 5 mm Hg
CCCN(/[N+]([O-])=N/O[C@@H]1CCN(C(=O)NC(C)(C)C)C1)C(C)(C)C [Example 119, O^2-[(3R)-1-(tert-butylcarbamoyl)pyrrolidin-3-yl]1-(N-tert-butyl-N-propylamino)diazen-1-ium-1,2-diolate]	at least 5 mm Hg
CN(/[N+]([O-])=N/O[C@@H]1CCN(C(=O)NC(C)(C)C)C1)C(C)(C)C [Example 58, O^2-[(3R)-1-(tert-butylcarbamoyl)pyrrolidin-3-yl]1-(N-tert-butyl-N-methylamino)diazen-1-ium-1,2-diolate]	at least 5 mm Hg
CN(/[N+]([O-])=N/O[C@@H]1CCN(C(=O)N2CC[C@@H](O/N=[N+](\[O-])N(C)C(C)(C)C)C2)C1)C(C)(C)C [Example 118]	at least 5 mm Hg
CN(/[N+]([O-])=N/O[C@@H]1CCN(c2ccc(C(F)(F)F)nc2)C1=O)C(C)(C)C [Example 73, O^2-{(3R)-2-oxo-1-[6-(trifluoromethyl)pyridin-3-yl]pyrrolidin-3-yl}1-(N-tert-butyl-N-methylamino)diazen-1-ium-1,2-diolate]	at least 5 mm Hg
CCN(/[N+]([O-])=N/O[C@@H]1CCN(CC(F)(F)F)C1)C(C)(C)C [Example 32, O^2-[(3R)-1-(2,2,2-trifluoroethyl)pyrrolidin-3-yl]-1-(N-tert-butyl-N-ethylamino)diazen-1-ium-1,2-diolate]	at least 5 mm Hg
CN(/[N+]([O-])=N/O[C@@H]1CCN(C(=O)Nc2cccc(C#N)c2)C1)C(C)(C)C [Example 117, O^2-{(3R)-1-[(3-cyanophenyl)carbamoyl]pyrrolidin-3-yl}1-(N-tert-butyl-N-methylamino)diazen-1-ium-1,2-diolate]	at least 5 mm Hg
CN(/[N+]([O-])=N/O[C@@H]1CCN(c2cccc(OC(F)(F)F)c2)C1=O)C(C)(C)C [Example 70, O^2-{(3R)-2-oxo-1-[3-(trifluoromethoxy)phenyl]pyrrolidin-3-yl}1-(N-tert-butyl-N-methylamino)diazen-1-ium-1,2-diolate]	at least 5 mm Hg
CCN(/[N+]([O-])=N/OC1CCN(C(=O)C(F)(F)F)CC1)C(C)(C)C [Example 56, O^2-[1-(trifluoroacetyl)piperidin-4-yl]1-(N-tert-butyl-N-ethylamino)diazen-1-ium-1,2-diolate]	at least 5 mm Hg
CCN(/[N+]([O-])=N/OC1CCN(C(=O)OC(C)(C)C)C1)C(C)(C)C (stereo in doubt) [Example 4, O^2-[(3R)-1-(tert-butoxycarbonyl)pyrrolidin-3-yl]-(N-tert-butyl-N-ethylamino)diazen-1-ium-1,2-diolate]	at least 5 mm Hg
CCN(/[N+]([O-])=N/O[C@@H]1CCNC1)C(C)(C)C [Example 16, O^2-[(3R)-pyrrolidin-3-yl]1-(N-tert-butyl-N-ethylamino)diazen-1-ium-1,2-diolate]	at least 5 mm Hg
CCN(/[N+]([O-])=N/OC1CCN(CC(F)(F)F)CC1)C(C)(C)C [Example 33, O^2-[1-(2,2,2-trifluoroethyl)piperidin-4-yl]1-(N-tert-butyl-N-ethylamino)diazen-1-ium-1,2-diolate]	at least 5 mm Hg
CN(/[N+]([O-])=N/O[C@@H]1CCN(S(C)(=O)=O)C1)C(C)(C)C [Example 60, O^2-[(3R)-1-(methylsulfonyl)pyrrolidin-3-yl]1-(N-tert-butyl-N-methylamino)diazen-1-ium-1,2-diolate]	at least 5 mm Hg
